Assay results reported in the supplement of paper PMC9549374.
Some of the results follow. Rule as the data show it: active = 2-fold of DMSO or more and inactive = the rest. Single values of this set are uncertain. Some low values are a fixed figure set by the source, not a measured ratio.

test system: CM7/1-hgem mouse ES cell-derived cardiomyocytes; assay: maximal number of mAG-hGem(1/110)-positive cardiomyocytes over 96 h, fold-change vs DMSO; higher = more cardiomyocyte cell cycle activity; details: 1 µM; 96 (max over 12 h time points) h

| SMILES | maximal number |
| --- | --- |
| COc1ccc(-c2coc3cc(O)ccc3c2=O)c(O)c1O | inactive: 1 |
| O=C(O)c1cc(O)c2c(c1)[C@H]([C@H]1c3cc(C(=O)O)cc(O)c3C(=O)c3c(O[C@@H]4O[C@H](CO)[C@@H](O)[C@H](O)[C@H]4O)cccc31)c1cccc(O[C@@H]3O[C@H](CO)[C@@H](O)[C@H](O)[C@H]3O)c1C2=O | inactive: 1 |
| O=S(=O)(c1cccc2cnccc12)N1CCCNCC1 | inactive: 0 |
| CC(=O)C1=C(O)C=C2Oc3c(C(C)=O)c(O)c(C)c(O)c3C2(C)C1=O (stereo in doubt) | inactive: 1 |
| C#CCN[C@@H]1CCc2ccccc21 | inactive: 1 |
| C#C[C@]1(O)CC[C@H]2[C@@H]3[C@H](C)CC4=C(CCC(=O)C4)[C@H]3CC[C@@]21C | inactive: 1 |
| C[C@H](CCC(=O)O)[C@H]1CC[C@H]2[C@@H]3C(=O)C[C@@H]4CC(=O)CC[C@]4(C)[C@H]3CC(=O)[C@]12C | inactive: 1 |
| CN1CCC[C@H]1c1cccnc1 | inactive: 1 |
| CC(=O)O[C@@H]1C[C@H]2C(C)(C)C(=O)C=C[C@]2(C)[C@H]2CC[C@@]3(C)[C@H](c4ccoc4)OC(=O)[C@H]4O[C@]43[C@@]21C | inactive: 1 |
| Cc1cc2nc3ccc(N(C)C)cc3[s+]c2cc1N | inactive: 1 |
| CC(C)Cc1ccc([C@H](C)C(=O)O)cc1 | inactive: 1 |
| CC(=O)O[C@H]1CC[C@]2(C)C3=C(CC[C@H]2C1(C)C)[C@]1(C)CC[C@H]([C@H](C)CCC=C(C)C)[C@@]1(C)CC3 | inactive: 0.5 |
| COc1ccc(-c2coc3cc(O)ccc3c2=O)cc1 | inactive: 1 |
| CC(=O)c1ccc[nH]1 | inactive: 1 |
| C=C[C@@](C)(O)CCC1C(=C)CCC2[C@@](C)(CO)CCC[C@]12C (stereo partly drawn) | inactive: 1 |
| CN1[C@@H]2CC[C@H]1C[C@@H](OC(=O)c1c[nH]c3ccccc13)C2 | inactive: 1 |
| COc1cc(O)c(C(=O)c2ccccc2)cc1O | inactive: 1 |
| CC[C@H](C)C(=O)O[C@H]1CCC=C2C=C[C@H](C)[C@H](CC[C@@H]3C[C@@H](O)CC(=O)O3)[C@H]21 | inactive: 1 |
| C[C@H](CCC(=O)O)[C@H]1CC[C@H]2[C@@H]3CC[C@@H]4C[C@H](O)CC[C@]4(C)[C@H]3CC[C@]12C | inactive: 1 |
| Nc1ccn([C@H]2CC[C@@H](CO)O2)c(=O)n1 | inactive: 1 |
| COc1ccc(C(=O)/C=C/c2ccccc2)cc1 | inactive: 1 |
| COc1ccc(C(C)=O)c(O)c1 | inactive: 1 |
| CC(C)CCCC(C)C1CCC2C3CCC4CC(O)CCC4(C)C3CCC12C (stereo not drawn) [5alpha-CHOLESTANOL] | inactive: 1 |

Reprinted at random: two records from the list.

| SMILES | maximal number |
| --- | --- |
| O=C(O)c1cc(O)c2c(c1)[C@H]([C@H]1c3cc(C(=O)O)cc(O)c3C(=O)c3c(O[C@@H]4O[C@H](CO)[C@@H](O)[C@H](O)[C@H]4O)cccc31)c1cccc(O[C@@H]3O[C@H](CO)[C@@H](O)[C@H](O)[C@H]3O)c1C2=O | inactive: 1 |
| COc1ccc(-c2coc3cc(O)ccc3c2=O)c(O)c1O | inactive: 1 |
